These are yes or no findings as the source states them, for the method shown. Binding can be weak; no strength is given.
Legend:
[1] = biological target: T1, BMP9 growth factor domain (BMP9-GFD) (UniProt Q9UK05); test: native gel or EMSA; purified proteins premixed, incubated at room temperature for 10 min, 10% native PAGE; bands excised and rerun on 12% nonreducing SDS/PAGE; both purified
T1 sequence: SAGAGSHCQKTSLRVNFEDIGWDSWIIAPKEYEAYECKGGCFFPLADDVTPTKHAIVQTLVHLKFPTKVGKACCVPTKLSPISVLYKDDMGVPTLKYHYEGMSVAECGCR

[2] = biological target: T1, BMP9 growth factor domain (BMP9-GFD); test: pull-down; pro-BMP9 applied to a nickel-chelating (Ni-NTA) column preloaded with His-tagged sENG (D+M); samples on 12% SDS/PAGE, Coomassie Blue; both purified
[3] = biological target: T1, BMP9 growth factor domain (BMP9-GFD); test: SEC; sENG(M) (1 mg) mixed with pro-BMP9 (10 ug GFD) at room temperature for 30 min; S200 10/30, 20 mM Tris-Cl, pH 7.4, 150 mM NaCl; fractions on nonreducing SDS/PAGE, immunoblotted; both purified

Measured: binding

BMP9 prodomain (from UniProt Q9UK05) (domain or fragment)
binds: all assays above
